Values joined by “and” are separate entries in the source; they are usually repeats but may differ in a detail not shown here. Equal entries are not always repeated. Structures can show the parent of a compound that is named as a salt. ± gives the standard deviation of the averaged measurements. Some of the results follow. Part of the spread comes from offsets between plates or batches.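 Assay uses culture-activated primary human stellate myofibroblasts; lipid droplet recovery indicates inactivation. Measured: proportion of Hoechst-counted cells over a plate-specific Bodipy cutoff, duplicate wells, DMSO and nortriptyline as per-plate negative and positive controls. A hit scores, control-normalized, above the plate's top-tenth-percentile nortriptyline wells or ranks among its three best wells. Final well concentrations not reported.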

In this experiment the test system is primary human hepatic stellate cells (donor 1). Nature of the experiment: percent Bodipy-positive cells; higher = more lipid droplet accumulation. The settings on record: 48 h.
The mark [1] stands for this setting: library stock concentration: 80 uM.
[2] abbreviates: library stock concentration: 400 uM.
Setting [3] is: library stock concentration: 2 mM.
Where [4] appears, read: library stock concentration: 10 mM.
The mark [5] stands for this setting: library stock concentration: 3.33 mM.
The mark [6] stands for this setting: library stock concentration: 1 mM.

On to `C[C@@H](N)c1ccc(C(=O)Nc2ccnc3[nH]ccc23)cc1`, for which the “percent Bodipy-positive cells” value under setting [1] came to 11.3 ± 3.5%, the “percent Bodipy-positive cells” value under setting [2] stood at 14.7 ± 2% and the “percent Bodipy-positive cells” value under setting [3] was determined as 36.3 ± 16%.
In the case of `Nc1ccc(S(=O)(=O)Nc2ccnn2-c2ccccc2)cc1` [Sulfaphenazole], the “percent Bodipy-positive cells” value was determined as 33.5 ± 7%. For the same compound, under setting [4], the “percent Bodipy-positive cells” value was 22.8% and 17.3%.
Take `COc1cc(/C=C(\C#N)C(N)=O)cc(CSc2nc3ccccc3s2)c1O`: the “percent Bodipy-positive cells” value under setting [4] stood at 6.52 ± 1.1%.
For `CCOCC(O)COc1ccc(NC(=O)CC[S+](C)C)cc1` (stereo not given) [Suplatast Tosylate], the “percent Bodipy-positive cells” value reads like this: under setting [5], 8.4 ± 2.4%; under setting [4], 16.6 ± 11%.
On to `CCOCC(O)COc1ccc(NC(=O)CC[S+](C)C)cc1` (stereo not given) [Suplatast tosylate], for which the “percent Bodipy-positive cells” value under setting [4] was 8.17 ± 1.7%.
Take `O=C(NCCCNc1nc(Nc2cccc(CN3CCOCC3)c2)ncc1C1CC1)C1CCC1`: the “percent Bodipy-positive cells” value runs as follows: under setting [1], 6.63 ± 1.7%; under setting [2], 17.6 ± 6.5%; under setting [3], 16 ± 1.8%; under setting [4], 45 ± 1%.
Regarding `CC(=O)Nc1ncc([N+](=O)[O-])s1` [Nithiamide], the “percent Bodipy-positive cells” value under setting [5] stood at 10.6 ± 0.73% and the “percent Bodipy-positive cells” value under setting [4] was determined as 24.9 ± 10%.
Consider `CC(=O)Nc1ncc([N+](=O)[O-])s1`, for which, under setting [4], the “percent Bodipy-positive cells” value was determined as 21.3 ± 3.3%.
On the same count and under the same terms, then `O=C(NOCC1CC1)c1cc(Br)c(F)c(F)c1Nc1ccc(I)cc1Cl`, with 15.7 ± 5.8%.
As to `CCCCCCCCCCCCCCCC(=O)O[C@@H]1[C@@H](O)[C@@H](O)[C@@H]([C@H](NC(=O)[C@@H]2C[C@@H](CCC)CN2C)[C@H](C)Cl)O[C@@H]1SC` [Clindamycin palmitate HCl], the “percent Bodipy-positive cells” value is, setting by setting: under setting [5], 8.23 ± 2.6%; under setting [4], 15.8 ± 6.5%.
With `CCCCCCCCCCCCCCCC(=O)O[C@@H]1[C@@H](O)[C@@H](O)[C@@H]([C@H](NC(=O)[C@@H]2C[C@@H](CCC)CN2C)[C@H](C)Cl)O[C@@H]1SC` [Clindamycin palmitate], under “library stock concentration: 4.7 mM”, the “percent Bodipy-positive cells” value came out at 12.3 ± 1.6%.
Take `CCCCCCCCCCCCCCCC(=O)O[C@@H]1[C@@H](O)[C@@H](O)[C@@H]([C@H](NC(=O)[C@@H]2C[C@@H](CCC)CN2C)[C@H](C)Cl)O[C@@H]1SC` [Clindamycin palmitate hydrochloride]: for the setting “library stock concentration: 2.9 mM”, the “percent Bodipy-positive cells” value came to 13.3 ± 9%.
As to `Cc1cc(CC(=O)O)n(C)c1C(=O)c1ccc(Cl)cc1` [Zomepirac sodium], the “percent Bodipy-positive cells” value runs as follows: (library stock concentration: 6.9 mM) 13.8 ± 1.9%; under setting [4], 14.7 ± 2.1%.
Take `Cc1cc(CC(=O)O)n(C)c1C(=O)c1ccc(Cl)cc1` [Zomepirac sodium salt]: the “percent Bodipy-positive cells” value worked out at 8.483 ± 0.019%.
Turning to `COc1cc2nccc(Oc3ccc(NC(=O)Nc4ccc(F)cc4F)c(F)c3)c2cc1OC`, under setting [4], the “percent Bodipy-positive cells” value was 92.32 ± 0.75%.
Consider `COc1ccc2cc(C(C)C(=O)O)ccc2c1` (stereo not drawn) [Naproxen(+)], for which the “percent Bodipy-positive cells” value reads like this: (library stock concentration: 8.7 mM) 1.38 ± 0.81%; under setting [4], 9.6655 ± 0.0064%.
With `Nc1ncnc2c1c(I)cn2[C@@H]1O[C@H](CO)[C@@H](O)[C@H]1O` [5-Iodotubercidin], under setting [5], the “percent Bodipy-positive cells” value worked out at 39.1 ± 3.1%.
For the compound `Nc1ncnc2c1nc(Sc1ccc(Cl)cc1)n2C1OC2COP(=O)(O)O[C@@H]2[C@@H]1O` (stereo not given in full) [8-(4-Chlorophenylthio)-cAMP sodium], the “percent Bodipy-positive cells” value under setting [4] worked out at 42.9 ± 6.8%.
As for `CC(C)=CCC/C(C)=C/CC/C(C)=C/CSCC(=O)O` [Farnesylthioacetic acid], the “percent Bodipy-positive cells” value under setting [6] was determined as 11.5 ± 9.3%.
The same measure, in the same setting: then `CC(C)=CCC/C(C)=C/CC/C(C)=C/CSCC(=O)O` [S-Farnesyl Thioacetic Acid], with 11.4 ± 1.5%.
Take `CC(C)c1ccc(C(=O)c2cccs2)c(SCCCCCCCCN(C)C)n1.O=C(O)C(=O)O`: the “percent Bodipy-positive cells” value under setting [4] worked out at 95.8 ± 3.7%.
For `c1cncc(CN2CCC(n3ncc4c(N5CCOCC5)nc(-c5ccc6[nH]ccc6c5)nc43)CC2)c1`, the “percent Bodipy-positive cells” value is, setting by setting: under setting [5], 95.8 ± 1.6%; under setting [4], 99.215 ± 0.022%.
For the compound `CC#CCOC(=O)C1=CCCN(C)C1` [Arecaidine but-2-ynyl ester tosylate], the “percent Bodipy-positive cells” value under setting [4] was 7.81 ± 1.1%.
Turning to `CC(C)C[C@@H]1NC(=O)[C@H](CCCN)NC(=O)[C@H](C(C)C)NC(=O)[C@H](Cc2ccc(O)cc2)N[C@@H](CCC(=O)O)C(=O)N[C@@H](CC(N)=O)C(=O)[C@@H](Cc2ccccc2)NC(=O)[C@H](Cc2ccccc2)NC(=O)[C@@H]2CCCN2C(=O)[C@@H](Cc2ccccc2)NC1=O` [Tyrothricin], the “percent Bodipy-positive cells” value stood at 39.7 ± 17% (library stock concentration: 1.6 mM) and 20.9 ± 4.8% under setting [4].
Take `CCN=C1N[C@@H]2[C@@H](O)[C@H](O)[C@@H](CO)O[C@@H]2S1` [Thiamet G]: the “percent Bodipy-positive cells” value runs as follows: under setting [5], 16.4 ± 1.4%; under setting [4], 30.2 ± 8.6%.
For the compound `Nc1ccc2cc3ccc(N)cc3nc2c1`, the “percent Bodipy-positive cells” value under setting [4] came out at 0.392 ± 0.55%.
As to `CC1(C)O[C@@H]2C[C@H]3[C@@H]4CCC5=CC(=O)C=C[C@]5(C)[C@@]4(F)[C@@H](O)C[C@]3(C)[C@]2(C(=O)CO)O1`, the “percent Bodipy-positive cells” value under setting [4] turned out to be 21 ± 9.1%.
On the same count and under the same terms, next, `CC1(C)O[C@@H]2C[C@H]3[C@@H]4CCC5=CC(=O)C=C[C@]5(C)[C@@]4(F)[C@@H](O)C[C@]3(C)[C@]2(C(=O)CO)O1` [Triamcinolone acetonide]: 17.6 ± 4%.
On to `CC1(C)O[C@@H]2C[C@H]3[C@@H]4CCC5=CC(=O)C=C[C@]5(C)[C@@]4(F)[C@@H](O)C[C@]3(C)[C@]2(C(=O)CO)O1` [Triamcinolone Acetonide], for which the “percent Bodipy-positive cells” value under setting [5] turned out to be 17.8 ± 17% and the “percent Bodipy-positive cells” value under setting [4] stood at 10.6 ± 3.4%.
With `NC1=NCCN1CC(=O)O` [Cyclocreatine], the “percent Bodipy-positive cells” value under setting [4] turned out to be 25.1 ± 3.4%.
For the compound `CC(C)(C)C(=O)Nc1ccccc1` [N-Pivaloylaniline], the “percent Bodipy-positive cells” value under setting [6] came to 24.8 ± 10%.
In the case of `N=C(N)SCCc1c[nH]cn1` [Imetit dihydrobromide], the “percent Bodipy-positive cells” value under setting [4] was 30.6% and 8.42%.
Turning to `CCCCC[C@H](O)/C=C/[C@H]1[C@H](O)CC(=O)[C@@H]1C/C=C\CCCC(=O)OC` [Prostaglandin E2 methyl ester], the “percent Bodipy-positive cells” value under setting [6] came to 17 ± 3.3%.
On to `Cc1cnc(NC(=O)C2=C(O)c3ccccc3S(=O)(=O)N2C)s1` [Meloxicam sodium], for which the “percent Bodipy-positive cells” value was determined as 59.5 ± 10% (library stock concentration: 5.4 mM) and 34.1 ± 1.2% under setting [4].
For `Cc1cnc(NC(=O)C2=C(O)c3ccccc3S(=O)(=O)N2C)s1` [Meloxicam], the “percent Bodipy-positive cells” value came out at 27.6 ± 3.6%. For the same compound, the “percent Bodipy-positive cells” value under setting [5] was found to be 6.7 ± 1.6%. Besides, the “percent Bodipy-positive cells” value (library stock concentration: 5.7 mM) stood at 7.5 ± 3.7%. For the same compound, the “percent Bodipy-positive cells” value under setting [4] was 15.3% and 28.7% and 31.8%.
Turning to `CC(C)NCC(O)COc1ccc(CC(N)=O)cc1` (racemic) [(RS)-Atenolol], under setting [4], the “percent Bodipy-positive cells” value was 4.54 ± 1%.
